# Source: the supplement of paper PMC8728848
# The list shows a part of the results.
# B1: Epa3to2 (Candida glabrata) (protein)
# chain: MGSSHHHHHHSSGLVPRGSHMKRELSSQNPFGYPIGCSPQDVAIIPGLTMELYSYPIVSGTPPNCYDASYVDPEYPRTGYLKRKMVGKSTGVTGNLNYKYSVEKACMVKYGNLPAGYNYNEPLTVSNFTMILYGYFKAQTTGLHTFFVNADDLLYINFGAGNAFDCCKREDSKTKLGEYVAYDIWHVDSSKNKVSLFLEKDLYYPIRMFFNNRDNNSSLDLSFSVNGATDQISDFSGYLYSVPDQPDTCPAHIGYDTTCR
# Assays:
# Assay in all cases: glycan array binding signal (z-score within array); higher = stronger binding
# Details in all cases: glycan notation: IUPAC condensed, linker removed
# [1] = target: Gal(b1-4)GlcNAc(b1-3)Gal(b1-4)GlcNAc(b1-6)[Gal(b1-3)]GalNAc
# How it was run: (§1)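 Glycan array binding is given as a within-array Z-score, which can be read as non-binding when negative. The arrays, 3228 of them, came from the Consortium for Functional Glycomics database and were retained only where the protein sequence was available. Z-scores were averaged across arrays of the same protein sequence at different concentrations or buffers and across linkers.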
# [2] = target: Gal(b1-4)GlcNAc(b1-3)Gal(b1-4)[Fuc(a1-3)]GlcNAc(b1-3)Gal(b1-4)[Fuc(a1-3)]GlcNAc
# How it was run: as §1
# [3] = target: Gal(b1-4)GlcNAc(b1-3)GalNAc
# How it was run: as §1
# [4] = target: Gal(b1-4)GlcNAc(b1-3)[Fuc(a1-3)GlcNAc(b1-6)]Gal(b1-4)Glc
# How it was run: as §1
# [5] = target: Gal(b1-4)GlcNAc(b1-3)[Gal(b1-4)GlcNAc(b1-6)]Gal(b1-4)GlcNAc
# How it was run: as §1
# [6] = target: Gal(b1-4)GlcNAc(b1-3)[GlcNAc(b1-6)]Gal(b1-4)GlcNAc
# How it was run: as §1
# [7] = target: Gal(b1-4)GlcNAc(b1-6)Gal(b1-4)GlcNAc
# How it was run: as §1
# [8] = target: Gal(b1-4)GlcNAc(b1-6)GalNAc
# How it was run: as §1
# [9] = target: Gal(b1-4)GlcNAc(b1-6)[Gal(b1-3)]GalNAc
# How it was run: as §1
# [10] = target: Gal(b1-4)GlcNAc(b1-6)[Gal(b1-4)GlcNAc(b1-3)]GalNAc
# How it was run: as §1
# [11] = target: Gal(b1-4)GlcNAc6P
# How it was run: as §1
# [12] = target: Gal(b1-6)Gal
# How it was run: as §1
# [13] = target: Gal3S(b1-3)GalNAc
# How it was run: as §1
# [14] = target: Gal3S(b1-3)GlcNAc
# How it was run: as §1
# [15] = target: Gal3S(b1-3)[Fuc(a1-4)]GlcNAc
# How it was run: as §1
# [16] = target: Gal3S(b1-4)Glc
# How it was run: as §1
# [17] = target: Gal3S(b1-4)Glc6S
# How it was run: as §1
# [18] = target: Gal3S(b1-4)GlcNAc
# How it was run: as §1
# [19] = target: Gal3S(b1-4)[Fuc(a1-3)]Glc6S
# How it was run: as §1
# [20] = target: Gal3S(b1-4)[Fuc(a1-3)]GlcNAc
# How it was run: as §1
# [21] = target: Gal3S(b1-4)[Fuc(a1-3)]GlcNAc6S
# How it was run: as §1
# [22] = target: Gal3S4S(b1-4)GlcNAc
# How it was run: as §1
# [23] = target: Gal3S6S(b1-4)GlcNAc
# How it was run: as §1
# [24] = target: Gal3S6S(b1-4)GlcNAc6S
# How it was run: as §1
# [25] = target: Gal4S(b1-4)GlcNAc
# How it was run: as §1
# [26] = target: Gal4S6S(b1-4)GlcNAc
# How it was run: as §1
# [27] = target: Gal6P(b1-4)GlcNAc
# How it was run: as §1
# [28] = target: Gal6S(b1-3)GlcNAc
# How it was run: as §1
# [29] = target: Gal6S(b1-3)GlcNAc6S
# How it was run: as §1
# [30] = target: Gal6S(b1-4)Glc
# How it was run: as §1
# [31] = target: Gal6S(b1-4)Glc6S
# How it was run: as §1
# [32] = target: Gal6S(b1-4)GlcNAc
# How it was run: as §1
# [33] = target: Gal6S(b1-4)GlcNAc6S
# How it was run: as §1
# [34] = target: GalNAc(a1-3)Gal
# How it was run: as §1
# [35] = target: GalNAc(a1-3)GalNAc
# How it was run: as §1
# [36] = target: GalNAc(a1-3)GalNAc(b1-3)Gal(a1-4)Gal(b1-4)Glc
# How it was run: as §1
# [37] = target: GalNAc(a1-3)GalNAc(b1-3)Gal(a1-4)Gal(b1-4)GlcNAc
# How it was run: as §1
binder,measurement,setting,value
B1,glycan array binding signal (z-score),[1],0.306
same,glycan array binding signal (z-score),[2],-0.448
same,glycan array binding signal (z-score),[3],-1.11
same,glycan array binding signal (z-score),[4],1.65
same,glycan array binding signal (z-score),[5],1.17
same,glycan array binding signal (z-score),[6],-1.14
same,glycan array binding signal (z-score),[7],-0.268
same,glycan array binding signal (z-score),[8],0.214
same,glycan array binding signal (z-score),[9],0.588
same,glycan array binding signal (z-score),[10],0.129
same,glycan array binding signal (z-score),[11],-0.776
same,glycan array binding signal (z-score),[12],0.043
same,glycan array binding signal (z-score),[13],-0.582
same,glycan array binding signal (z-score),[14],0.408
same,glycan array binding signal (z-score),[15],0.077
same,glycan array binding signal (z-score),[16],0.557
same,glycan array binding signal (z-score),[17],0.185
same,glycan array binding signal (z-score),[18],-0.899
same,glycan array binding signal (z-score),[19],0.958
same,glycan array binding signal (z-score),[20],0.614
same,glycan array binding signal (z-score),[21],1.12
same,glycan array binding signal (z-score),[22],-0.354
same,glycan array binding signal (z-score),[23],2.42
same,glycan array binding signal (z-score),[24],0.129
same,glycan array binding signal (z-score),[25],-0.281
same,glycan array binding signal (z-score),[26],-0.411
same,glycan array binding signal (z-score),[27],-0.6
same,glycan array binding signal (z-score),[28],0.814
same,glycan array binding signal (z-score),[29],3.65
same,glycan array binding signal (z-score),[30],0.068
same,glycan array binding signal (z-score),[31],-0.051
same,glycan array binding signal (z-score),[32],-0.325
same,glycan array binding signal (z-score),[33],2.45
same,glycan array binding signal (z-score),[34],1.49
same,glycan array binding signal (z-score),[35],-0.396
same,glycan array binding signal (z-score),[36],-0.532
same,glycan array binding signal (z-score),[37],0.729

# Retrieved one by one from the entries so far, 2 records:
binder,measurement,setting,value
B1,glycan array binding signal (z-score),[9],0.588
same,glycan array binding signal (z-score),[15],0.077
